Measured values from article PMC6426973, “Oligomeric self-association contributes to E2A-PBX1-mediated oncogenesis”.
These are yes or no findings as the source states them, for the method shown. In cells and extracts the contact can be indirect. Here binding means that the protein was enriched with, or labelled near, the bait; the list need not be complete.

B1: PBX2 (endogenous in RCH-ACV cells) (protein, UniProt P40425 1-430)
chain: MDERLLGPPPPGGGRGGLGLVSGEPGGPGEPPGGGDPGGGSGGVPGGRGKQDIGDILQQIMTITDQSLDEAQAKKHALNCHRMKPALFSVLCEIKEKTGLSIRSSQEEEPVDPQLMRLDNMLLAEGVAGPEKGGGSAAAAAAAAASGGGVSPDNSIEHSDYRSKLAQIRHIYHSELEKYEQACNEFTTHVMNLLREQSRTRPVAPKEMERMVSIIHRKFSAIQMQLKQSTCEAVMILRSRFLDARRKRRNFSKQATEVLNEYFYSHLSNPYPSEEAKEELAKKCGITVSQVSNWFGNKRIRYKKNIGKFQEEANIYAVKTAVSVTQGGHSRTSSPTPPSSAGSGGSFNLSGSGDMFLGMPGLNGDSYSASQVESLRHSMGPGGYGDNLGGGQMYSPREMRANGSWQEAVTPSSVTSPTEGPGSVHSDTSN
B2: PBX3 (endogenous in RCH-ACV cells) (protein, UniProt P40426 1-434)
chain: MDDQSRMLQTLAGVNLAGHSVQGGMALPPPPHGHEGADGDGRKQDIGDILHQIMTITDQSLDEAQAKKHALNCHRMKPALFSVLCEIKEKTGLSIRGAQEEDPPDPQLMRLDNMLLAEGVSGPEKGGGSAAAAAAAAASGGSSDNSIEHSDYRAKLTQIRQIYHTELEKYEQACNEFTTHVMNLLREQSRTRPISPKEIERMVGIIHRKFSSIQMQLKQSTCEAVMILRSRFLDARRKRRNFSKQATEILNEYFYSHLSNPYPSEEAKEELAKKCSITVSQVSNWFGNKRIRYKKNIGKFQEEANLYAAKTAVTAAHAVAAAVQNNQTNSPTTPNSGSSGSFNLPNSGDMFMNMQSLNGDSYQGSQVGANVQSQVDTLRHVINQTGGYSDGLGGNSLYSPHNLNANGGWQDATTPSSVTSPTEGPGSVHSDTSN

Target: LAP-tagged E2A-PBX1 (human)
Assay: affinity purification with mass spectrometry; LAP tandem purification from RCH-ACV cells stably expressing LAP-E2A-PBX1: GFP antibody beads, PreScission release, anti-Flag M2 gel, Flag peptide elution; LAP150 buffer (50 mM HEPES pH 7.4, 150 mM KCl, 0.3% NP-40); three independent experiments

Row | Binder | binding
1 | B1 | binds
2 | B2 | binds
